In the supplement of paper PMC8728848:
This is one part of the list.

Assays:
Assay in all cases: glycan array binding signal (z-score within array); higher = stronger binding
Settings in all cases: glycan notation: IUPAC condensed, linker removed
Fuc(a1-3)GlcNAc = target: Fuc(a1-3)GlcNAc
Method in brief: (§1)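 From the Consortium for Functional Glycomics database, 3228 arrays were curated, keeping only those whose protein sequence was available. Binding is given as a within-array Z-score averaged across arrays sharing a protein sequence and across linkers. Negative Z-scores can be read as non-binding.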

[1] = target: Fuc(a1-3)[Gal(b1-4)]Glc6S
Method in brief: as §1

[2] = target: Fuc(a1-3)[Gal(b1-4)]GlcNAc
Method in brief: as §1

[3] = target: Fuc(a1-3)[Gal(b1-4)]GlcNAc(b1-2)Man
Method in brief: as §1

[4] = target: Fuc(a1-3)[Gal(b1-4)]GlcNAc(b1-2)Man(a1-3)[Fuc(a1-3)[Gal(b1-4)]GlcNAc(b1-2)Man(a1-6)]Man(b1-4)GlcNAc(b1-4)GlcNAc
Method in brief: as §1

[5] = target: Fuc(a1-3)[Gal(b1-4)]GlcNAc(b1-2)Man(a1-3)[Fuc(a1-3)[Gal(b1-4)]GlcNAc(b1-2)Man(a1-6)]Man(b1-4)GlcNAc(b1-4)[Fuc(a1-6)]GlcNAc
Method in brief: as §1

[6] = target: Fuc(a1-3)[Gal(b1-4)]GlcNAc(b1-3)Gal(b1-3)[Fuc(a1-4)]GlcNAc
Method in brief: as §1

[7] = target: Fuc(a1-3)[Gal(b1-4)]GlcNAc(b1-3)Gal(b1-4)[Fuc(a1-3)]GlcNAc
Method in brief: as §1

[8] = target: Fuc(a1-3)[Gal(b1-4)]GlcNAc(b1-3)Gal(b1-4)[Fuc(a1-3)]GlcNAc(b1-3)Gal(b1-4)[Fuc(a1-3)]GlcNAc
Method in brief: as §1

[9] = target: Fuc(a1-3)[Gal(b1-4)]GlcNAc(b1-3)GalNAc
Method in brief: as §1

[10] = target: Fuc(a1-3)[Gal(b1-4)]GlcNAc(b1-6)GalNAc
Method in brief: as §1

[11] = target: Fuc(a1-3)[Gal(b1-4)]GlcNAc(b1-6)[Gal(b1-3)GlcNAc(b1-3)]Gal(b1-4)Glc
Method in brief: as §1

[12] = target: Fuc(a1-3)[Gal(b1-4)]GlcNAc6S
Method in brief: as §1

[13] = target: Fuc(a1-3)[Gal3S(b1-4)]Glc
Method in brief: as §1

[14] = target: Fuc(a1-3)[Gal3S(b1-4)]GlcNAc
Method in brief: as §1

[15] = target: Fuc(a1-3)[Gal3S(b1-4)]GlcNAc6S
Method in brief: as §1

[16] = target: Fuc(a1-3)[GalNAc(b1-4)]GlcNAc
Method in brief: as §1

[17] = target: Fuc(a1-3)[GalNAc(b1-4)]GlcNAc6S
Method in brief: as §1

Fuc(a1-4)GlcNAc = target: Fuc(a1-4)GlcNAc
Method in brief: as §1

Fuc(b1-3)GlcNAc = target: Fuc(b1-3)GlcNAc
Method in brief: as §1

Gal(a1-2)Gal = target: Gal(a1-2)Gal
Method in brief: as §1

Gal(a1-3)Gal = target: Gal(a1-3)Gal
Method in brief: as §1

Gal(a1-3)Gal(b1-3)GlcNAc = target: Gal(a1-3)Gal(b1-3)GlcNAc
Method in brief: as §1

[18] = target: Gal(a1-3)Gal(b1-3)GlcNAc(b1-2)Man
Method in brief: as §1

[19] = target: Gal(a1-3)Gal(b1-3)GlcNAc(b1-2)Man(a1-3)[Gal(a1-3)Gal(b1-3)GlcNAc(b1-2)Man(a1-6)]Man(b1-4)GlcNAc(b1-4)GlcNAc
Method in brief: as §1

[20] = target: Gal(a1-3)Gal(b1-3)GlcNAc(b1-3)GalNAc
Method in brief: as §1

[21] = target: Gal(a1-3)Gal(b1-3)GlcNAc(b1-6)GalNAc
Method in brief: as §1

[22] = target: Gal(a1-3)Gal(b1-3)[Fuc(a1-4)]GlcNAc(b1-2)Man(a1-3)[Gal(a1-3)Gal(b1-3)[Fuc(a1-4)]GlcNAc(b1-2)Man(a1-6)]Man(b1-4)GlcNAc(b1-4)GlcNAc
Method in brief: as §1

Gal(a1-3)Gal(b1-4)Glc = target: Gal(a1-3)Gal(b1-4)Glc
Method in brief: as §1

Gal(a1-3)Gal(b1-4)GlcNAc = target: Gal(a1-3)Gal(b1-4)GlcNAc
Method in brief: as §1

[23] = target: Gal(a1-3)Gal(b1-4)GlcNAc(b1-2)Man
Method in brief: as §1

[24] = target: Gal(a1-3)Gal(b1-4)GlcNAc(b1-2)Man(a1-3)[Gal(a1-3)Gal(b1-4)GlcNAc(b1-2)Man(a1-6)]Man(b1-4)GlcNAc(b1-4)GlcNAc
Method in brief: as §1

[25] = target: Gal(a1-3)Gal(b1-4)GlcNAc(b1-3)GalNAc
Method in brief: as §1

[26] = target: Gal(a1-3)Gal(b1-4)GlcNAc(b1-6)GalNAc
Method in brief: as §1

[27] = target: Gal(a1-3)Gal(b1-4)[Fuc(a1-3)]GlcNAc
Method in brief: as §1

[28] = target: Gal(a1-3)Gal(b1-4)[Fuc(a1-3)]GlcNAc(b1-2)Man(a1-3)[Gal(a1-3)Gal(b1-4)[Fuc(a1-3)]GlcNAc(b1-2)Man(a1-6)]Man(b1-4)GlcNAc(b1-4)GlcNAc
Method in brief: as §1

Gal(a1-3)GalNAc = target: Gal(a1-3)GalNAc
Method in brief: as §1

[29] = target: Gal(a1-3)[Gal(a1-4)]Gal(b1-4)GlcNAc
Method in brief: as §1

[30] = target: Gal(a1-4)Gal(b1-3)GlcNAc(b1-2)Man(a1-3)[Gal(a1-4)Gal(b1-3)GlcNAc(b1-2)Man(a1-6)]Man(b1-4)GlcNAc(b1-4)GlcNAc
Method in brief: as §1

Gal(a1-4)Gal(b1-4)Glc = target: Gal(a1-4)Gal(b1-4)Glc
Method in brief: as §1

Gal(a1-4)Gal(b1-4)GlcNAc = target: Gal(a1-4)Gal(b1-4)GlcNAc
Method in brief: as §1

[31] = target: Gal(a1-4)Gal(b1-4)GlcNAc(b1-2)Man(a1-3)[Gal(a1-4)Gal(b1-4)GlcNAc(b1-2)Man(a1-6)]Man(b1-4)GlcNAc(b1-4)GlcNAc
Method in brief: as §1

[32] = target: Gal(a1-4)Gal(b1-4)GlcNAc(b1-3)Gal(b1-4)Glc
Method in brief: as §1

Gal(a1-4)GlcNAc = target: Gal(a1-4)GlcNAc
Method in brief: as §1

Gal(a1-6)Glc = target: Gal(a1-6)Glc
Method in brief: as §1

B1: PX15642A-pgi-501-20-501 (Parabacteroides gingivalis) (protein)
chain: CELDRDPEGKDFQQPYTSFVQTKQNRDGLYALLRNTENPRMHFYQELQSDMYCTTITDGNSLAPFVNWDLGILNDHGRADEDEVSGIAGYYFVYNRLNQQANAFVNNTEAALQNQVYKNSTEIANAKSFLAEGKVLQALAIWRLMDRFSFHESVTEVNSGAKDLGVILLKEYNPGYIGPRATKAQCYDYILSRLSEAIEVLPENRESVLYVSRDYAYALRARIYLALGEYGKAAADAKMVVDKYPLIGAADASEFENIYRSDANNPEIIFRGFASATLGSFTATTLNGAAPAGKDIKYNPSAVPFQWVVDLYENEDFRKSVYIAKVVKKDKGYLVNKFLEDKAYRDVQDKPNLKVGARYFSVAEVYLILVESALQTGDTPTAEKYLKALSKARGAEVSVVNMEALQAERTRELIGEGSRLRDMVRWSIPNNHDAFETQPGLEGFANTTPLKAQAPVGFYAYTWEFPQRDRQTNPQLIKNWPI
- glycan array binding signal (z-score) (Fuc(a1-3)GlcNAc): -0.538
- glycan array binding signal (z-score) [1]: 1.14
- glycan array binding signal (z-score) [2]: -0.142
- glycan array binding signal (z-score) [3]: -0.285
- glycan array binding signal (z-score) [4]: -0.273
- glycan array binding signal (z-score) [5]: 0.038
- glycan array binding signal (z-score) [6]: -0.483
- glycan array binding signal (z-score) [7]: -0.691
- glycan array binding signal (z-score) [8]: 0.419
- glycan array binding signal (z-score) [9]: -0.744
- glycan array binding signal (z-score) [10]: -0.015
- glycan array binding signal (z-score) [11]: -0.871
- glycan array binding signal (z-score) [12]: 0.592
- glycan array binding signal (z-score) [13]: -0.872
- glycan array binding signal (z-score) [14]: -0.194
- glycan array binding signal (z-score) [15]: -0.467
- glycan array binding signal (z-score) [16]: 1.08
- glycan array binding signal (z-score) [17]: 0.034
- glycan array binding signal (z-score) (Fuc(a1-4)GlcNAc): 2.72
- glycan array binding signal (z-score) (Fuc(b1-3)GlcNAc): -0.235
- glycan array binding signal (z-score) (Gal(a1-2)Gal): -0.319
- glycan array binding signal (z-score) (Gal(a1-3)Gal): -0.702
- glycan array binding signal (z-score) (Gal(a1-3)Gal(b1-3)GlcNAc): -0.477
- glycan array binding signal (z-score) [18]: -0.409
- glycan array binding signal (z-score) [19]: 0.212
- glycan array binding signal (z-score) [20]: -0.112
- glycan array binding signal (z-score) [21]: -0.233
- glycan array binding signal (z-score) [22]: 1.34
- glycan array binding signal (z-score) (Gal(a1-3)Gal(b1-4)Glc): -0.282
- glycan array binding signal (z-score) (Gal(a1-3)Gal(b1-4)GlcNAc): 0.4
- glycan array binding signal (z-score) [23]: 0.003
- glycan array binding signal (z-score) [24]: -0.319
- glycan array binding signal (z-score) [25]: 0.023
- glycan array binding signal (z-score) [26]: 0.185
- glycan array binding signal (z-score) [27]: -1.03
- glycan array binding signal (z-score) [28]: 1.48
- glycan array binding signal (z-score) (Gal(a1-3)GalNAc): -0.248
- glycan array binding signal (z-score) [29]: 6.32
- glycan array binding signal (z-score) [30]: 0.218
- glycan array binding signal (z-score) (Gal(a1-4)Gal(b1-4)Glc): -0.455
- glycan array binding signal (z-score) (Gal(a1-4)Gal(b1-4)GlcNAc): 0.206
- glycan array binding signal (z-score) [31]: 0.38
- glycan array binding signal (z-score) [32]: -1.13
- glycan array binding signal (z-score) (Gal(a1-4)GlcNAc): -0.317
- glycan array binding signal (z-score) (Gal(a1-6)Glc): -0.727
